Experimental data taken from the supplement of paper PMC10849652.
The list shows a part of the results. Residues, ends and D or L forms follow the SMILES beside them. *: point of attachment. Cbz = O=C(OCc1ccccc1)*

The chains behind the UniProt entries cited, without tags or fusion partners. Where a name states a change or a piece, a line headed by the entry shows the natural chain unless it says otherwise.
UniProt Q8NHM5: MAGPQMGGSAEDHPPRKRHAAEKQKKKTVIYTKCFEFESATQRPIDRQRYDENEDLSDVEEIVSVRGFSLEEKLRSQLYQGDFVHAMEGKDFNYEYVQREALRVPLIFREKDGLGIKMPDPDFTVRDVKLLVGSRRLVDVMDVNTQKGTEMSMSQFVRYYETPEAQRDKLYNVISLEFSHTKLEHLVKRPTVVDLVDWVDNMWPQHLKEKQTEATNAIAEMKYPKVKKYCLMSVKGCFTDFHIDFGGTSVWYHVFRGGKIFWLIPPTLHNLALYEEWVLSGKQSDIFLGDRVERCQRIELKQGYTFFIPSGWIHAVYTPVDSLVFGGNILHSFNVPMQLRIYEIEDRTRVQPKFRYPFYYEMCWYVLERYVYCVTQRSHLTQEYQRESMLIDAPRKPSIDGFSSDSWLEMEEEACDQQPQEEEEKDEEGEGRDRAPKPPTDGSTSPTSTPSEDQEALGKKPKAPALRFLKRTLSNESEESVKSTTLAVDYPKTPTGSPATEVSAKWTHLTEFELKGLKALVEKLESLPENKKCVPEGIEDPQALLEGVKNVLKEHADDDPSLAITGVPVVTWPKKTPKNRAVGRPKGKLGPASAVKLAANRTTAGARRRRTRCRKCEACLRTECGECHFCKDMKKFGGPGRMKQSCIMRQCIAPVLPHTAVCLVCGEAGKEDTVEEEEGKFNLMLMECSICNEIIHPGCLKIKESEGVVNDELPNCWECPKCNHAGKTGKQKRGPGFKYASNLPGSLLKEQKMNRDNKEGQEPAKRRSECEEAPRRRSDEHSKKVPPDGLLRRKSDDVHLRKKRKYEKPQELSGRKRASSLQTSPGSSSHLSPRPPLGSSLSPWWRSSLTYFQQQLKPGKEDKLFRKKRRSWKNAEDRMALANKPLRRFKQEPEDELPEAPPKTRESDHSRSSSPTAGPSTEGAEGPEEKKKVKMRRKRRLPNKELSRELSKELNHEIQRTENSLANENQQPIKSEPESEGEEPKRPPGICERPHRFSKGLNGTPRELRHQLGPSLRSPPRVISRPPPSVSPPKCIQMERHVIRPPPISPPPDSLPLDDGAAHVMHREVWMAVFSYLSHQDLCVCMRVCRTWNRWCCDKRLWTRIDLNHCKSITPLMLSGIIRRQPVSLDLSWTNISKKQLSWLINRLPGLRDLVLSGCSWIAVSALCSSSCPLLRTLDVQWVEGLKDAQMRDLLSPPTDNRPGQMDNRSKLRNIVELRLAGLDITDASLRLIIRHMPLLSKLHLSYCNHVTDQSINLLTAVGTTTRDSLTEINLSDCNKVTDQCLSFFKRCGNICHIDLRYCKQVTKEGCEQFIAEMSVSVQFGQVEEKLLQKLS
UniProt Q92845: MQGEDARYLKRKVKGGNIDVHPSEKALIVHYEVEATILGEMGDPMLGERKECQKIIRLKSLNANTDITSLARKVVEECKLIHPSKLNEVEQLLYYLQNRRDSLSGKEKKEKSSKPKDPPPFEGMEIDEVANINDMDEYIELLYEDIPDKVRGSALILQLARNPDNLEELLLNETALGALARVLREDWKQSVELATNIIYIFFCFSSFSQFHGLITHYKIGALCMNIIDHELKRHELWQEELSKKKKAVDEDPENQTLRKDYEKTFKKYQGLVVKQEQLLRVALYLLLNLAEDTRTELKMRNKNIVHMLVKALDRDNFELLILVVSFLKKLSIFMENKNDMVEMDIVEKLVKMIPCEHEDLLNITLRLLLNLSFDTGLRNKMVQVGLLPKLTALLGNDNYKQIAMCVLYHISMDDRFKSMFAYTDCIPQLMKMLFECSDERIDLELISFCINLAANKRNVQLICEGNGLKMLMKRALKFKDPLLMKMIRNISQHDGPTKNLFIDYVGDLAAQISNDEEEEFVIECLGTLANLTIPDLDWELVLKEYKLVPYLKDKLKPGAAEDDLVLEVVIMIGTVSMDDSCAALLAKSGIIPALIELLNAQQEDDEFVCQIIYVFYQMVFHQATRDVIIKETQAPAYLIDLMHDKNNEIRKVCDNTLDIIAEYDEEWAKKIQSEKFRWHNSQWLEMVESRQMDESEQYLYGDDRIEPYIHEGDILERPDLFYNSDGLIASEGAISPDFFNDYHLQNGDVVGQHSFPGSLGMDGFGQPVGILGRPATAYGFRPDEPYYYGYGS
UniProt Q8IXQ5, whole entry, looked up: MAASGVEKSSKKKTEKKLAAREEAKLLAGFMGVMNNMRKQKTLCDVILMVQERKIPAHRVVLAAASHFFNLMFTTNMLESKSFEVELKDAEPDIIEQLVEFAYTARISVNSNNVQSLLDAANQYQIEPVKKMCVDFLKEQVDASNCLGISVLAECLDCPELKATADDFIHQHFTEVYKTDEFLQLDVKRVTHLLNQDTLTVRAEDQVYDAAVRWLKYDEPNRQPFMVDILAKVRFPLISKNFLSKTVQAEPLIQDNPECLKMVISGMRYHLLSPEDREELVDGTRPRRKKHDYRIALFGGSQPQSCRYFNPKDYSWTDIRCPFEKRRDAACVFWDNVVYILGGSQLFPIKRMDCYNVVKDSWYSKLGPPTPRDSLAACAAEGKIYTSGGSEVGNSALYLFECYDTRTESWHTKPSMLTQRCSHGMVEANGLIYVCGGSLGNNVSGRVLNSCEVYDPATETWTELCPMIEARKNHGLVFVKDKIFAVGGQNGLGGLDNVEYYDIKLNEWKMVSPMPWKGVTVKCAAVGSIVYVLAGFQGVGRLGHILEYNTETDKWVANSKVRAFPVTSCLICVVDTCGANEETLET
UniProt Q9H1H9: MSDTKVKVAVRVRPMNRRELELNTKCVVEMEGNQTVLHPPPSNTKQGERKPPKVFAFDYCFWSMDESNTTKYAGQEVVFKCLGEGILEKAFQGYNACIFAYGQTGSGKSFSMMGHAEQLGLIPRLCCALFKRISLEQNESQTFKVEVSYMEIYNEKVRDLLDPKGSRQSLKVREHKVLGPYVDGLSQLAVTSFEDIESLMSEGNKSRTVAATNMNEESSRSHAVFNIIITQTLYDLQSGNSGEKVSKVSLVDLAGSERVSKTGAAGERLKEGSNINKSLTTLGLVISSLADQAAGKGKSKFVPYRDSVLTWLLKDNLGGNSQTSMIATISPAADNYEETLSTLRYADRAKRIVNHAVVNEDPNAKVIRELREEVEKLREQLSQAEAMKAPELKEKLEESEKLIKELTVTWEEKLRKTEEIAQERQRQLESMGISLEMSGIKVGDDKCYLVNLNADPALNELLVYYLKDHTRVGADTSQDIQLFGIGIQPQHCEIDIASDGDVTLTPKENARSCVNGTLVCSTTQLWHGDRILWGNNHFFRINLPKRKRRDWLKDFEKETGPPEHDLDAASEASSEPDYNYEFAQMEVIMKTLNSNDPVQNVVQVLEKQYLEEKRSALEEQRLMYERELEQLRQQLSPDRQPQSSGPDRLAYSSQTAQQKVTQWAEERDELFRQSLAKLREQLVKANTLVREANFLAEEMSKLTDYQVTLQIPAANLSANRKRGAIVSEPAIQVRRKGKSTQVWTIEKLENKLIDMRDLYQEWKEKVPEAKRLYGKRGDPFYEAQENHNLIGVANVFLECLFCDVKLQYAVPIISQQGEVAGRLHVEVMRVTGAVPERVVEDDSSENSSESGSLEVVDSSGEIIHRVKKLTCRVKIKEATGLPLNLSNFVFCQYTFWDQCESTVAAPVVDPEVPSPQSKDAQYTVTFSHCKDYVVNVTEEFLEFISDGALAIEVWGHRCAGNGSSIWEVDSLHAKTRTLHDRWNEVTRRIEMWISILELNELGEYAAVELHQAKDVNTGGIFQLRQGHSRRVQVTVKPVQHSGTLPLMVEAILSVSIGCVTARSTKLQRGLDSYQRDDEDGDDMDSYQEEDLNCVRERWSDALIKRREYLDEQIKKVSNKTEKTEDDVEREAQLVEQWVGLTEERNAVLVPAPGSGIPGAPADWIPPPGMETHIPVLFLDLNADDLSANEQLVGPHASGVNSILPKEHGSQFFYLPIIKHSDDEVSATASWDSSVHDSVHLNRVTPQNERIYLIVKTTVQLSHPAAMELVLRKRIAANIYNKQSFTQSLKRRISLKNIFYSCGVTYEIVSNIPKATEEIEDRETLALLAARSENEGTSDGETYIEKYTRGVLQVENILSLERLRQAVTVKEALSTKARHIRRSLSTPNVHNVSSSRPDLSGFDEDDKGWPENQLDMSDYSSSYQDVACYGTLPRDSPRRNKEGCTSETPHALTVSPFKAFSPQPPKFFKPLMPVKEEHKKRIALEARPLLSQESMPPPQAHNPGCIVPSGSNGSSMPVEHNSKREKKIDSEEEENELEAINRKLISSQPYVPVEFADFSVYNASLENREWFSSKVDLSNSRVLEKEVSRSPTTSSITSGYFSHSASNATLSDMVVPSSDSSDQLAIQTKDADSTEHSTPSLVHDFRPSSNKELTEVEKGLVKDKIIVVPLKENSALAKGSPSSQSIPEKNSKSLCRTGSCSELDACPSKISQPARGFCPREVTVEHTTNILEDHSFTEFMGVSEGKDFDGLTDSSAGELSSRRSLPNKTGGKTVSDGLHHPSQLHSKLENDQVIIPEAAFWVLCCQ
UniProt Q9H079: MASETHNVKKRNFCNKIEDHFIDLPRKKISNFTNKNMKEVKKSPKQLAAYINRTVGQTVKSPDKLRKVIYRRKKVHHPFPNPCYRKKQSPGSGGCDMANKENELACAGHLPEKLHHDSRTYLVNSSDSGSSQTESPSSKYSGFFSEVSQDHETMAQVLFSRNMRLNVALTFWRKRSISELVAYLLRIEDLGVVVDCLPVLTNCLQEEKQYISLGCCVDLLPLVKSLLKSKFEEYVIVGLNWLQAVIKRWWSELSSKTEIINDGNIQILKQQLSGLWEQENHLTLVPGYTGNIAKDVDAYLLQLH
UniProt Q9NQR1: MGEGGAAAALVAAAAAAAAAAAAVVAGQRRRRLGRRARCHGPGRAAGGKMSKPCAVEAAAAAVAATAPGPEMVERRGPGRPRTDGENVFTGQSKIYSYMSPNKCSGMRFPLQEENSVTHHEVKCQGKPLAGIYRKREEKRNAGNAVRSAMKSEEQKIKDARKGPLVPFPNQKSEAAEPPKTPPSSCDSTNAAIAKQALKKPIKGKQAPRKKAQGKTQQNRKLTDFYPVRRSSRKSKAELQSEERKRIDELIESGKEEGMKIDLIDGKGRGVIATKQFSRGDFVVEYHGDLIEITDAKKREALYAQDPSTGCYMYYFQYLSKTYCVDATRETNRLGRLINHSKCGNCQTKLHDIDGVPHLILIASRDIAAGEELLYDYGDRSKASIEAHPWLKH
UniProt Q96L93: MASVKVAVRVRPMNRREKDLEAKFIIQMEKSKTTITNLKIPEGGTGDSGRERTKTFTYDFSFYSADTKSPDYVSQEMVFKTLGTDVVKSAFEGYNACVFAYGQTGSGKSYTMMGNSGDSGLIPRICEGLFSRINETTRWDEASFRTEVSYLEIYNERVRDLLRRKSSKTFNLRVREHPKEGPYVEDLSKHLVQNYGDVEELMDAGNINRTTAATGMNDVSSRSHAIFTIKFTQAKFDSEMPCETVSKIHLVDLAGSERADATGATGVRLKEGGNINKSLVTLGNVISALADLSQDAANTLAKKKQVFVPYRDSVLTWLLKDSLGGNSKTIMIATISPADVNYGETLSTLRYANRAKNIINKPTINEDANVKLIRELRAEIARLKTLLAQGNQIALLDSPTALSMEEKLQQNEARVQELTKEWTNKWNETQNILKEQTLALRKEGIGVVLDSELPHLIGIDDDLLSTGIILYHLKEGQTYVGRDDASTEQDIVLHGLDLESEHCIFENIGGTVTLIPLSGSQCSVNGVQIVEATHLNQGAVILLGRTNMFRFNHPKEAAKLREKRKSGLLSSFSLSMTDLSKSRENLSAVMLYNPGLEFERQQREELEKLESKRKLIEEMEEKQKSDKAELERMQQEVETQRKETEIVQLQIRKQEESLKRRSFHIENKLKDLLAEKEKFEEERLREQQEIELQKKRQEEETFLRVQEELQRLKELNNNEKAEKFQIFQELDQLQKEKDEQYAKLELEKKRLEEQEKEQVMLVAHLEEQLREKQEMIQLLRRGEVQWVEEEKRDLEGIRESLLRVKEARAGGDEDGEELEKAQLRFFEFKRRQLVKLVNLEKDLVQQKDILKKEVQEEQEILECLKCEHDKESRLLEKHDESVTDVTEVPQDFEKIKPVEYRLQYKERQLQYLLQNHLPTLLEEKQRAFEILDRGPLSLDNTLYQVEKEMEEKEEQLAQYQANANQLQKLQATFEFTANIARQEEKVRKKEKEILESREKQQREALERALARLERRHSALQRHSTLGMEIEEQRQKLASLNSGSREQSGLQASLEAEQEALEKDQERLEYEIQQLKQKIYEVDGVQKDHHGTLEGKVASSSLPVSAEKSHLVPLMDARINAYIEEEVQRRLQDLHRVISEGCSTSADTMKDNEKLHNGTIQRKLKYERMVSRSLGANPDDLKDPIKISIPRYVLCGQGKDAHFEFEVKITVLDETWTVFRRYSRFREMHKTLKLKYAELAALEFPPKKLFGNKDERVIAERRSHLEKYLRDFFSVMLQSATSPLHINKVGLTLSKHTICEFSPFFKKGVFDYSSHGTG

How the values were obtained:
Assay in all cases: log2 fold change, soluble protein after heating vs DMSO (PISA); higher = thermal stabilisation; K562 cells, 10 uM, 30 min; active = over 0.2 and 3.5 SD of the protein, either way, in both replicates (recomputed)
ibrutinib = compound: C=CC(=O)N1CCC[C@@H](n2nc(-c3ccc(Oc4ccccc4)cc3)c3c(N)ncnc32)C1 [ibrutinib]
Summary of the method: (§1)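 Values are thermal stability changes relative to control samples and are taken from duplicates. They are stated as log2 fold changes. Before quantification by TMTpro 16plex LC-MS/MS with equalised channel sums, K562 cells at 2×10^6 cells/mL were treated with 10 μM compound for 30 min, heated in aliquots for 3 min across 48°C-58°C, pooled, extracted in PBS with 0.5% NP-40 at 4°C, and centrifuged at 21,000xg for 90 min to give the soluble supernatant.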

[1] = compound: CC1=C(C=C(C=C1)NC(=O)C2=CC(=CC=C2)C(C)(C)C#N)NC3=CC4=C(C=C3)N=CN(C4=O)C
Summary of the method: as §1

barasertib = compound: CCN(CCCOc1ccc2c(Nc3cc(CC(=O)Nc4cccc(F)c4)[nH]n3)ncnc2c1)CCOP(=O)(O)O [barasertib]
Summary of the method: as §1

[2] = compound: CC(=O)c1cnc2ccc(-c3cc(Cl)c(O)c(Cl)c3)nc2c1N[C@H]1CC[C@H](CN(C)C)CC1
Summary of the method: as §1

ralimetinib = compound: CC(C)(C)Cn1c(N)nc2ccc(-c3[nH]c(C(C)(C)C)nc3-c3ccc(F)cc3)nc21 [ralimetinib]
Summary of the method: as §1

[3] = compound: CC(C)C1=C2N=C(C=C(N2N=C1)NCC3=CC=CC=C3)NCCCCCCN
Summary of the method: as §1

[4] = compound: CC(C)C[C@@H](C=O)NC(=O)[C@H](CC(C)C)NC(=O)[C@H](CC(C)C)NC(=O)OCc1ccccc1
Summary of the method: as §1

[5] = compound: CC1=C(C(CC(=O)N1)C2=CC=C(C=C2)C(F)(F)F)C(=O)NC3=C(C=C4C(=C3)C=NN4)F
Summary of the method: as §1

[6] = compound: CC1=C(C2=C(C=C1)C(=O)C3=CC=CC=C3N2CCCN)C
Summary of the method: as §1

[7] = compound: CC1=C(C=C(C=C1)NC(=O)C2=CC(=CC=C2)N(C)C)NC(=O)C3=CC=C(C=C3)O
Summary of the method: as §1

[8] = compound: CC1=CC=C(C=C1)SC2=C3C=C(SC3=CN=C2)C(=O)N
Summary of the method: as §1

vemurafenib = compound: CCCS(=O)(=O)Nc1ccc(F)c(C(=O)c2c[nH]c3ncc(-c4ccc(Cl)cc4)cc23)c1F [vemurafenib]
Summary of the method: as §1

[9] = compound: CCCS(=O)(=O)Nc1ccc(F)c(C(=O)c2c[nH]c3ncc(Cl)cc23)c1F
Summary of the method: as §1

[10] = compound: CCCc1cc(C)[nH]c(=O)c1CNC(=O)c1cc(-c2ccnc(N3CCN(C)CC3)c2)cc2c1cnn2C(C)C
Summary of the method: as §1

givinostat = compound: CCN(CC)Cc1ccc2cc(COC(=O)Nc3ccc(C(=O)NO)cc3)ccc2c1 [givinostat]
Summary of the method: as §1

IRAK-1-4 Inhibitor I = compound: C1COCCN1CCN2C3=CC=CC=C3N=C2NC(=O)C4=CC(=CC=C4)[N+](=O)[O-] [IRAK-1-4 Inhibitor I]
Summary of the method: as §1

[11] = compound: CC(C)(O)CC(=O)NCCn1ccc2ncnc(Nc3ccc(Oc4cccc(C(F)(F)F)c4)c(Cl)c3)c21
Summary of the method: as §1

pinometostat = compound: CC(C)N(C[C@H]1O[C@@H](n2cnc3c(N)ncnc32)[C@H](O)[C@@H]1O)[C@H]1C[C@@H](CCc2nc3cc(C(C)(C)C)ccc3[nH]2)C1 [pinometostat]
Summary of the method: as §1

[12] = compound: CC1=NC(=CC=C1)C2=C(N=C(N2)C(C)(C)C)C3=CC4=NC=CN=C4C=C3
Summary of the method: as §1

Nexturastat A = compound: CCCCN(Cc1ccc(C(=O)NO)cc1)C(=O)Nc1ccccc1 [Nexturastat A]
Summary of the method: as §1

Measured: log2 fold change

KDM2B (UniProt Q8NHM5)
inactive: ibrutinib -0.001 | [1] -0.064 | barasertib -0.098

KAT8 isoform 2 (UniProt Q9H7Z6)
inactive: ibrutinib -0.028 | [2] -0.04 | ralimetinib 0.042 | [3] -0.029 | [4] 0.051 | [5] 0.023 | [6] 0.069 | [1] 0.025 | [7] -0.028 | [8] 0.122 | vemurafenib -0.136 | [9] -0.018 | [10] -0.037 | givinostat -0.003 | barasertib -0.007

KIDINS220 isoform 2 (UniProt Q9ULH0)
inactive: IRAK-1-4 Inhibitor I 0.012 | ibrutinib 0.088 | [11] 0.116 | pinometostat -0.045 | [5] 0.148 | [6] 0.125 | [1] -0.342 | [12] -0.202 | Nexturastat A -0.017 | vemurafenib -0.449 | barasertib -0.075

KRR1 (UniProt Q13601)
inactive: IRAK-1-4 Inhibitor I -0.46 | pinometostat 0.378 | [12] -0.151

KALRN (UniProt O60229)
inactive: ibrutinib 0.044 | [11] 0.046 | [3] 0.113 | [5] 0.131 | Nexturastat A 0.017 | givinostat 0.228 | barasertib 0.036

KIAA1109 (UniProt Q2LD37)
inactive: IRAK-1-4 Inhibitor I 0.055 | [3] 0.094 | pinometostat 0.041 | [1] -0.069 | [12] -0.155 | givinostat -0.032

KIFAP3 (UniProt Q92845)
inactive: IRAK-1-4 Inhibitor I 0.104 | ibrutinib 0.178 | [11] -0.024 | pinometostat 0.038 | [5] -0.123 | [12] -0.017 | Nexturastat A -0.051 | barasertib 0.289

KIAA0930 isoform 2 (UniProt Q6ICG6)
inactive: IRAK-1-4 Inhibitor I 0.028 | ibrutinib 0.178 | [11] -0.018 | [3] -0.011 | pinometostat -0.033 | [5] 0.064 | [1] -0.062 | [8] 0.031 | [12] -0.014 | Nexturastat A -0.065 | vemurafenib -0.003 | [9] -0.046 | [10] -0.126 | givinostat 0.019 | barasertib 0.083

KDF1 (UniProt Q8NAX2)
inactive: IRAK-1-4 Inhibitor I -0.035 | ralimetinib 0.097 | [3] 0.15 | [4] 0.043 | pinometostat -0.025 | [7] -0.054 | [12] -0.082 | givinostat 0

KLHL7 (UniProt Q8IXQ5)
inactive: ibrutinib 0.161 | [2] 0.041 | [11] -0.057 | [3] 0.164 | [5] -0.22 | [1] -0.114 | [8] 0.004 | Nexturastat A -0.08 | vemurafenib -0.511 | [9] -0.078 | givinostat -0.062 | barasertib -0.055

KLC3 isoform 3 (UniProt Q6P597)
inactive: [6] -0.104 | [1] 0.026 | [8] -0.215 | [9] 0.115

KIF13A isoform 4 (UniProt Q9H1H9)
inactive: [2] 0.123 | [1] 0.035

KDM6A (UniProt O15550)
inactive: [2] -0.3 | ralimetinib 0 | [11] -0.344 | [4] 0.086 | [7] 0.001 | [8] 0.01 | Nexturastat A -0.498 | vemurafenib -0.017 | [9] -0.118

KATNBL1 (UniProt Q9H079)
inactive: ralimetinib 0.187 | [4] -0.163 | [6] -0.083 | [1] 0.013 | [7] 0.065 | [8] -0.082 | vemurafenib 0.137 | [9] -0.052 | [10] 0.133

ITSN2 (UniProt Q9NZM3)
inactive: [3] 0.051 | givinostat -0.074

KIN (UniProt O60870)
inactive: [1] -0.044

KIF20B isoform 2 (UniProt Q96Q89)
inactive: ralimetinib 0.054 | [4] 0.224 | [7] 0.111

KHSRP (UniProt M0R3J3)
inactive: [11] 0.224 | Nexturastat A -0.115

KIF1B isoform 3 (UniProt O60333)
inactive: vemurafenib -0.244 | [10] -0.006

KRT10, A0A1B0GVI3
inactive: [5] 0.012 | [10] 0.116

KMT5A (UniProt Q9NQR1)
inactive: [1] 0.07

KLHL36 (UniProt Q8N4N3)
inactive: [11] -0.1 | [5] -0.348 | Nexturastat A 0.072 | [10] -0.041

KIAA0040 (UniProt Q15053)
inactive: [2] -0.059 | [3] -0.098 | [5] 0.003 | vemurafenib -0.081 | [10] 0.051 | givinostat 0.126

KIF20A (UniProt O95235)
inactive: [2] 0.16 | [11] -0.234 | Nexturastat A 0.145

KLHL20 (UniProt Q9Y2M5)
inactive: [2] -0.075 | ralimetinib 0.065 | [3] 0.442 | [4] -0.007 | [5] -0.078 | [6] -0.086 | [7] 0.028 | [8] -0.002 | vemurafenib 0.049 | [9] 0 | [10] -0.012 | givinostat 0.168

KIF16B isoform 2 (UniProt Q96L93)
inactive: [2] -0.241 | ralimetinib -0.104 | [4] 0.008 | [7] -0.019

KCNH2 (UniProt Q12809)
inactive: ralimetinib -0.012 | [11] -0.036 | [3] -0.418 | pinometostat 0.581 | [6] -0.17 | [1] 0.08 | [7] 0.158 | [8] 0.027 | Nexturastat A 0.277 | vemurafenib 0.068 | [9] 0.054 | [10] 0.051 | barasertib -0.112

KCTD21 (UniProt Q4G0X4)
inactive: [2] 0.226 | [1] -0.017

KMT2A isoform 3 (UniProt Q03164)
inactive: ralimetinib 0.218 | [3] 0.013 | [4] 0.069 | [1] 0.14 | [7] -0.039 | givinostat 0.114

Copied from the entries so far (2 entries):
KCNH2 (UniProt Q12809)
inactive: ralimetinib -0.012 | [11] -0.036 | [3] -0.418 | pinometostat 0.581 | [6] -0.17 | [1] 0.08 | [7] 0.158 | [8] 0.027 | Nexturastat A 0.277 | vemurafenib 0.068 | [9] 0.054 | [10] 0.051 | barasertib -0.112

KCTD21 (UniProt Q4G0X4)
inactive: [2] 0.226 | [1] -0.017

Remaining list, next part.

KBTBD7 (UniProt Q8WVZ9)
inactive: [3] -0.238 | [5] 0.097 | [1] -0.122 | givinostat 0.057

KLHDC2 (UniProt Q9Y2U9)
inactive: [5] -0.073
